Drawing on article PMC3125180, this text covers binding for 10 substances.

Protein sequences, listed by entry. Tags and fused reporters are not part of them. Lines headed by an entry give the natural chain unless they say otherwise; changes in a name come on top.
UniProt Q726B7: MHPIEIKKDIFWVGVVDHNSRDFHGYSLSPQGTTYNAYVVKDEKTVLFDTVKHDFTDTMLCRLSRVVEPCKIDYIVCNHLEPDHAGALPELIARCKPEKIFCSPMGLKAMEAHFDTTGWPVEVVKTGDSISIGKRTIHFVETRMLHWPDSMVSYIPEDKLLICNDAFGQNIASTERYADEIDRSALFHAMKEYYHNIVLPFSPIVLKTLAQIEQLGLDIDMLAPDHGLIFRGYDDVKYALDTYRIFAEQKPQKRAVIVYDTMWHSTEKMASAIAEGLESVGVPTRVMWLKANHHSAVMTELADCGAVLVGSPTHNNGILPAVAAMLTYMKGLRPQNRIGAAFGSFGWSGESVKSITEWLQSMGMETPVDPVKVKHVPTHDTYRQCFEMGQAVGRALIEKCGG
UniProt Q729Q8: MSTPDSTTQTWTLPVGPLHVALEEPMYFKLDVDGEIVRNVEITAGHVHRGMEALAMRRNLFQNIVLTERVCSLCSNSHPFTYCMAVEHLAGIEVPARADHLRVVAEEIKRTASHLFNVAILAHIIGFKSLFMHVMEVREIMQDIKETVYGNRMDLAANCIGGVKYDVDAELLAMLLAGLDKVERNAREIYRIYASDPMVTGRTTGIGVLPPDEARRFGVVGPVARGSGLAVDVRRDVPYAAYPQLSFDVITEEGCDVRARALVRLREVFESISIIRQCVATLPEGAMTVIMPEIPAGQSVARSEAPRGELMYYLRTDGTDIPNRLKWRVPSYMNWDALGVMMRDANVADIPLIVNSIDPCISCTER
UniProt Q72DT2: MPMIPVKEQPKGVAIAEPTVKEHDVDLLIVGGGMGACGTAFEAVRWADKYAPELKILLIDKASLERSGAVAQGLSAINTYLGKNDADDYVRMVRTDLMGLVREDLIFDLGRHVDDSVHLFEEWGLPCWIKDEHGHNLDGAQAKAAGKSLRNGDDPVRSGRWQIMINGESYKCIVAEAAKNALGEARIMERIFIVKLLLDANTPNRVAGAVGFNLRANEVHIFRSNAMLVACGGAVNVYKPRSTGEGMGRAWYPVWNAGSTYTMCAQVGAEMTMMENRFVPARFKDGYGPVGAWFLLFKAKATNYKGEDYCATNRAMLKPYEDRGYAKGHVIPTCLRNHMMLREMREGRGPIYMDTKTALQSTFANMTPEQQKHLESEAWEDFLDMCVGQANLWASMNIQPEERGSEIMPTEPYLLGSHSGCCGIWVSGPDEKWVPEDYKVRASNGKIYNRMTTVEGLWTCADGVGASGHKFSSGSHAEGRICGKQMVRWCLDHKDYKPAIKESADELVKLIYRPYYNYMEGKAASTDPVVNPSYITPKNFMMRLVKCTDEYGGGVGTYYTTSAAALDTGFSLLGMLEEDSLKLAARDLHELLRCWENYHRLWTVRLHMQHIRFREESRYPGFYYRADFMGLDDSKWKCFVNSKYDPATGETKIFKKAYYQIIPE
UniProt Q72DW8: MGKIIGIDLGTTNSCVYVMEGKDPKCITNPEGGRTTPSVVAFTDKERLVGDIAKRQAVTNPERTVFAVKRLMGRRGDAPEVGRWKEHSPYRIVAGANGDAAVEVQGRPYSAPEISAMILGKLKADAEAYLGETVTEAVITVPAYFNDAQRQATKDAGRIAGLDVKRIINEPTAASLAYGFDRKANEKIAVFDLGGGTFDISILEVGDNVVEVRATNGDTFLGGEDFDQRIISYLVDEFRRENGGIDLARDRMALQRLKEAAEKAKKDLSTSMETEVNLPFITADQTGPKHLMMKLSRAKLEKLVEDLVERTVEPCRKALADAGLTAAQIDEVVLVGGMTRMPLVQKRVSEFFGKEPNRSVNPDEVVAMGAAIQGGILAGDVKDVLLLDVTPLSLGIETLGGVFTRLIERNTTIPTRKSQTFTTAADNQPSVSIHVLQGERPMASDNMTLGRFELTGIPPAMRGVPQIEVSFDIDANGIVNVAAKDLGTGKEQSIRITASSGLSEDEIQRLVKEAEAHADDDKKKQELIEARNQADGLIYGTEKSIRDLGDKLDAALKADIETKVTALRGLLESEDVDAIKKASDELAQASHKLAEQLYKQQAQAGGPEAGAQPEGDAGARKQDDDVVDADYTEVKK
UniProt Q72DT3: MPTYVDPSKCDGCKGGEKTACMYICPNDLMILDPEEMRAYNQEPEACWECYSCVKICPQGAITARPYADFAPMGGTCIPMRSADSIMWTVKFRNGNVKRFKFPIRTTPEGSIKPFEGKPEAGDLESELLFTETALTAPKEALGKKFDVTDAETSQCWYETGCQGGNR
UniProt Q729Q9: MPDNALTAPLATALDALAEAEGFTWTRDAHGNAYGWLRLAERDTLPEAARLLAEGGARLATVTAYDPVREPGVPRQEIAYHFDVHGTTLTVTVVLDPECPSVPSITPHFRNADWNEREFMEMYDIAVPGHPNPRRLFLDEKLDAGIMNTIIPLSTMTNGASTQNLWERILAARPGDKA
UniProt Q72DS8: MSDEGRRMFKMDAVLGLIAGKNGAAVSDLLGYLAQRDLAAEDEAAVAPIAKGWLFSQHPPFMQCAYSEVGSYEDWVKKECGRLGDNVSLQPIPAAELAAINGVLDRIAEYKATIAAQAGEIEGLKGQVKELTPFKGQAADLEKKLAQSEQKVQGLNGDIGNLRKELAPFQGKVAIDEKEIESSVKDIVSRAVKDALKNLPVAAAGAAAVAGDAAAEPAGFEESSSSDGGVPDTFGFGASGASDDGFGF
UniProt Q72C29: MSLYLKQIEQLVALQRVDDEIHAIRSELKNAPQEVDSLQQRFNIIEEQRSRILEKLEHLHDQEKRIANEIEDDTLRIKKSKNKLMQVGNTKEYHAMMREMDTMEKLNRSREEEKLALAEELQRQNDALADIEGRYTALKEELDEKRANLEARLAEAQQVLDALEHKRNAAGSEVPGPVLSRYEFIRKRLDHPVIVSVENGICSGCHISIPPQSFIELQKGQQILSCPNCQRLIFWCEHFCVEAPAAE
UniProt Q72A94: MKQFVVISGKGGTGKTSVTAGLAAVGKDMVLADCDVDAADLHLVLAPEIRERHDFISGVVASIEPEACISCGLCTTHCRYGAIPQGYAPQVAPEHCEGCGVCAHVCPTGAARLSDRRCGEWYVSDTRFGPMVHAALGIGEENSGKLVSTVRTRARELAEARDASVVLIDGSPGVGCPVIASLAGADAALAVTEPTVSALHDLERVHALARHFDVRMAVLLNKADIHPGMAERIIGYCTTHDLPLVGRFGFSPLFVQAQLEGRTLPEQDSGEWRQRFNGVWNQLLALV
UniProt Q725U5: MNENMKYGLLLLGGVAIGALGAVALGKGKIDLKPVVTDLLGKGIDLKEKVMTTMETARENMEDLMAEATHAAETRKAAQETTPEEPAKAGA
UniProt Q72AW5: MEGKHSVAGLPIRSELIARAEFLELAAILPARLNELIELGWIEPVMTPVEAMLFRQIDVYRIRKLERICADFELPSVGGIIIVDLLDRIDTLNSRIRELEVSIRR

What all share (experiment): affinity purification with mass spectrometry; chromosomally C-terminally Strep-tag II-tagged bait in D. vulgaris JW801 grown anaerobically in LS4D to late log phase; soluble lysate (60~70 mg protein) on a 1-ml Strep-Tactin Sepharose column, gravity flow, 4°C, Buffer W (100 mM Tris-HCl, 150 mM NaCl, 1 mM EDTA, pH 8), eluted with desthiobiotin; tryptic digest, LC-MS/MS; three biological replicates; untagged JW801 as no-bait control

Experiment [1] concerns the target Strep-tagged Rubredoxin-oxygen oxidoreductase, Roo (DVU3185) (Desulfovibrio vulgaris Hildenborough (strain JW801)) (UniProt Q726B7).
Experiment [2] concerns the target Strep-tagged carbon monoxide-induced hydrogenase CooH (DVU2291) (Desulfovibrio vulgaris Hildenborough (strain JW801)) (UniProt Q729Q8).
Experiment [3] deals with Strep-tagged ApsA (DVU0847) (Desulfovibrio vulgaris Hildenborough (strain JW801)) (UniProt Q72DT2).
Experiment [4] deals with T1, Strep-tagged Rubredoxin, Rub (DVU3184) (Desulfovibrio vulgaris Hildenborough (strain JW801)) (UniProt P00269).
T1 sequence: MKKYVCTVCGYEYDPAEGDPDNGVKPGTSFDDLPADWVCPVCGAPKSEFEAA

In experiment [5] the target is T2, Strep-tagged Polyribonucleotide nucleotidyltransferase (Pnp, DVU0503) (Desulfovibrio vulgaris Hildenborough (strain JW801)) (UniProt Q72ER6).
T2 sequence: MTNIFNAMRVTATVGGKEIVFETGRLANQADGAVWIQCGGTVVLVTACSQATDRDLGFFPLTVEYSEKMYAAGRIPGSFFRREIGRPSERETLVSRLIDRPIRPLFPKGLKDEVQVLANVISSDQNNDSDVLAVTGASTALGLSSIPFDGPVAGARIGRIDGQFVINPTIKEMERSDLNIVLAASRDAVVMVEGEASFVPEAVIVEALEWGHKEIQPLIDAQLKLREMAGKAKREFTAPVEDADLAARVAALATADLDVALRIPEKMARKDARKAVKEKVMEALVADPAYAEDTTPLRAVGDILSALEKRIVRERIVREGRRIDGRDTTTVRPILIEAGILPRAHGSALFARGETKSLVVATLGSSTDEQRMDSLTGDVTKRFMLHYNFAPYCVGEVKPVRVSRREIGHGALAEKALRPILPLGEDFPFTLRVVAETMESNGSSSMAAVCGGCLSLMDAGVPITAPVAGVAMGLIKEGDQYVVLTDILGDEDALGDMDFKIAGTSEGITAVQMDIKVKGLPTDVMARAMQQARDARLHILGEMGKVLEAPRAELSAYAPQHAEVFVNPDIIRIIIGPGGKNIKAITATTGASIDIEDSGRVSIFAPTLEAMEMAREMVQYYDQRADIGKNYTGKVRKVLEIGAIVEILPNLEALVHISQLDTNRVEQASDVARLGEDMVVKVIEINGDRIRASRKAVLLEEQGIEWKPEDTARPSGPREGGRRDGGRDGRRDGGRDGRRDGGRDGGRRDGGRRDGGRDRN

Experiment [6] addresses Strep-tagged DnaK (DVU0811) (Desulfovibrio vulgaris Hildenborough (strain JW801)) (UniProt Q72DW8).

These are yes or no findings as the source states them, for the method shown. In cells and extracts the contact can be indirect. A yes stands for co-enrichment or nearness to the bait. Other partners may have been found. For some of these results: A no says only that the protein was not detected with the bait. For some of these results: Tags and fused reporters may be left off the sequences shown.

In the case of “ApsA (DVU0847) (from UniProt Q72DT2) (enzyme)”, the binding result in experiment [1] and in experiment [2] was “binds” in each case.

Consider “ApsB (DVU0846) (from UniProt Q72DT3) (enzyme)”, for which the binding entry in experiment [3], in experiment [1] and in experiment [2] was “binds” throughout. CooU (DVU2290) (from UniProt Q729Q9): the binding result in experiment [2] is “binds”. With DVU0851 (from UniProt Q72DS8), the binding entry in experiment [4] was “binds”.

In the case of DVU1455 (from UniProt Q72C29), the binding entry in experiment [5] is “binds”. On to DVU2103 (from UniProt Q72A94), for which the binding result in experiment [6] was “binds”.

On to DVU3330 (from UniProt Q725U5), for which the binding entry in experiment [6] was “binds”. The same measure, in the same setting: in the case of DafA (DVU1875) (from UniProt Q72AW5) it was “binds”. Take RhlE (DVU1982) (enzyme): the binding entry in experiment [5] was “no binding”. On to Rne (DVU3055) (enzyme), for which the binding entry in experiment [5] was “no binding”.
